The values below are quoted from earlier work in patent publication US9044520B2, “Compound accumulating in inflammatory site, diagnostic agent containing the compound in labeled state and its precursor compound for labeling” (Nihon Medi-Physics Co., Ltd., priority 2011, dated 2015).

Sequences of proteins named here, by UniProt entry; tags and fusion partners are left off.
UniProt P21462, whole entry: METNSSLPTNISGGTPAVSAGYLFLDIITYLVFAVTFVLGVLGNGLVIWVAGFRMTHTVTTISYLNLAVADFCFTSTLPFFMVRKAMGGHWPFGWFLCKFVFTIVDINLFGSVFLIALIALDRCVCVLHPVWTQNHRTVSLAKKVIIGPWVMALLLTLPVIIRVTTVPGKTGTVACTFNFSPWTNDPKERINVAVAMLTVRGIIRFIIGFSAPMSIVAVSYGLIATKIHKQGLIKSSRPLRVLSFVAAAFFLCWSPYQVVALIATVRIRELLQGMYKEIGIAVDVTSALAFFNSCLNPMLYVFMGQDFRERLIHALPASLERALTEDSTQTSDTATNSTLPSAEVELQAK

Molecules are shown by their SMILES. The match of structure and compound is tentative.

This data set deals with formylated peptide receptor (FPR) (Homo sapiens, UniProt P21462). As to conditions: read-out: Kd Value of Radioligand; value used in equation (1) for Ki calculation; source not stated, radioligand obtained from PerkinElmer; cited from earlier work.

A word on the Kd: it is the concentration at which binding is half-saturated. Consider `CSCC[C@H](NC(=O)[C@H](Cc1ccc(O)c([125I])c1)NC(=O)[C@H](CCCCN)NC(=O)[C@@H](N)Cc1c[nH]c2ccccc12)C(=O)N[C@H](C(=O)N[C@H](CCSC)C(N)=O)C(C)C`, for which the dissociation constant (Kd) is 390 pM.
